Structures can show the parent of a compound that is named as a salt. This is one part of the list. The calls rarely recur for the same compound in another form.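 In K562 cells expressing nanoluciferase-fused kinases, luminescence was recorded at 4 h intervals between 2 and 18 h, normalized as percent of control with DMSO at 100% and a positive control at 0%. A significant (2 sigma) signal drop marks a time point as decreased. The authors' rule for a hit is not shown and takes in more than the number of time points.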
Target: STK38 (UniProt Q15208)
Assay: kinase-Nluc reporter destabilization hit call (1 = scored as downregulated) (binary); higher = compound decreases kinase abundance
Settings: K562; 2-18 h

The chains behind the UniProt entries cited, without tags or fusion partners. Where a name states a change or a piece, a line headed by the entry shows the natural chain unless it says otherwise.
UniProt Q15208: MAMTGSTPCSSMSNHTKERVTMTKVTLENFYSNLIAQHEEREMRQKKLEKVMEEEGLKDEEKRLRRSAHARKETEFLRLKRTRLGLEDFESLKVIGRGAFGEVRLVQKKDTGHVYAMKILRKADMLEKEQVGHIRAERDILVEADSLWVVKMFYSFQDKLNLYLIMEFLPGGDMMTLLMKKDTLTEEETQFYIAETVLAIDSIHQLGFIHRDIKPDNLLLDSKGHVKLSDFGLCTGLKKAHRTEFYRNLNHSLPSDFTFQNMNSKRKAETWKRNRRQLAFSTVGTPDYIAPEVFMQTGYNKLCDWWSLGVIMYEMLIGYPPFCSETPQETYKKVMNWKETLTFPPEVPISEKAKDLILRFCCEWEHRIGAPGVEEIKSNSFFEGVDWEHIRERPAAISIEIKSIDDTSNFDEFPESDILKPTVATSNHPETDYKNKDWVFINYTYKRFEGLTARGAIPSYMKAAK

kinase-Nluc reporter destabilization hit call, inactive:
CN1CC[C@@H](c2c(O)cc(O)c3c(=O)cc(-c4ccc(C(F)(F)F)cc4Cl)oc23)[C@@H]1CO [Voruciclib (hydrochloride)] (10 µM) 0
O=c1cc(-c2cccc3c2Sc2ccccc2S3)oc(N2CCOCC2)c1 (10 µM) 0
O=[N+]([O-])c1ccc(Nc2nc(N3CCOCC3)nc(N3CCOCC3)n2)cc1 (10 µM) 0
c1ccc(-c2nc(=NCCN3CCOCC3)sn2-c2ccccc2)cc1 [VP3.15 (dihydrobromide)] (10 µM) 0
Nc1nc(N)c2nc(-c3cccc(O)c3)cnc2n1 (10 µM) 0
Nc1ncnc2c1c(-c1ccc(Oc3ccccc3)cc1)nn2C1CCN(CCOCCOCCOc2ccc3c(c2)CN(C2CCC(=O)NC2=O)C3=O)CC1 (stereo unspecified) (2.5 µM) 0
C=CC(=O)N1C[C@H](COc2nc(Nc3cnn(C)c3)nc3[nH]cc(Cl)c23)[C@@H](OC)C1 (2.5 µM) 0
Cc1nn(C)c2c1C(c1ccc(C(F)(F)F)cc1)C(C#N)=C(N)O2 (stereo unspecified) (10 µM) 0
O=C(NC1CCOCC1)c1ccc(-c2cc(-c3c[nH]nc3-c3ccccn3)ccn2)cc1 (10 µM) 0
CC/C(=N\NC(=O)c1ccnc(NCCCN2CCOCC2)c1)c1ccc(Cl)cc1O (2.5 µM) 0
COc1cc(N2CCOCC2)ccc1Nc1ncc(Cl)c(Nc2ccccc2NS(C)(=O)=O)n1 (2.5 µM) 0
Cn1cnc([N+](=O)[O-])c1C[N+](C)(C)C/C=C/C(=O)Nc1cc2c(Nc3ccc(Cl)c(Br)c3)ncnc2cn1 [Tarloxotinib (bromide)] (10 µM) 0
O=C(Nc1cccc(C(F)(F)F)c1)c1cccc2cc(Oc3cc(CO)ncn3)ccc12 (10 µM) 0
Oc1ccc(/C=C/c2cc(O)cc(O)c2)cc1 [Resveratrol] (10 µM) 0
O=c1[nH]c(C2CCCN2)nc2c1oc1ccc(Cl)cc12 (stereo unspecified) [XL413 (hydrochloride)] (10 µM) 0
CN(c1ccc(NC(=O)Nc2ccc(OC(F)(F)F)cc2)cc1)c1ccnc(Nc2cccc(S(N)(=O)=O)c2)n1 (2.5 µM) 0
C=C[C@@](C)(/C=C/c1ccc(O)cc1)CCC=C(C)C [Bakuchiol] (10 µM) 0
COc1cc2ncnc(-n3nc(-c4ccccn4)nc3N)c2cc1OC (10 µM) 0
CNc1nc(Nc2ccc(C(=O)N3CCOCC3)cc2OC)ncc1Cl (2.5 µM) 0
CC(C)S(=O)(=O)c1ccc2nccc(Nc3ccc4scnc4c3)c2c1 (10 µM) 0
CC(C)(O)[C@H]1CC[C@H](Nc2ccc3ncc(-c4cccc(C(F)(F)F)c4)n3n2)CC1 (10 µM) 0
CCN(CC)c1ccc2cc(-c3nc4cc(C)ccc4o3)c(=O)oc2c1 (10 µM) 0
CN(C)S(=O)(=O)c1ccc2c(c1)/C(=C/c1cc3c([nH]1)CCCC3)C(=O)N2 (2.5 µM) 0
C=CC(=O)Nc1cc(Nc2nccc(-n3cc(CN(C)C)c(-c4ccccc4)n3)n2)c(OC)cc1N1CCOCC1 [Lazertinib] (10 µM) 0
Cc1ccc2c(Nc3cccc(Cl)c3F)nccc2c1NC(=O)c1csc2c(N)ncnc12 [Belvarafenib] (10 µM) 0
Oc1cc(O)c2c(c1)OC1(c3ccc(O)c(O)c3)Oc3cc(O)c4c(c3C2C1O)OC(c1ccc(O)c(O)c1)C(O)C4 (stereo unspecified) [Procyanidin A1] (10 µM) 0
c1ccc(-c2nc3c(c(-n4ccc5cnccc54)n2)CCC3)nc1 (10 µM) 0
Cc1cc(C)nc(NS(=O)(=O)c2ccc(NC(=S)NC(=O)COc3ccc(Br)cc3Cl)cc2)n1 (2.5 µM) 0
Cc1ccc(NC(=O)c2ccc(CN(CCN(C)C)C(=O)c3cccnc3)cc2)cc1Nc1nccc(-c2cccnc2)n1 [PDGFRα kinase inhibitor 1] (10 µM) 0
C[C@H](Nc1ncnc2[nH]cnc12)c1cc2ccc(F)cc2nc1-c1ccccn1 (10 µM) 0
CN(C)CCC=C1c2ccccc2CCc2ccccc21 [Amitriptyline (hydrochloride)] (2.5 µM) 0

A portion from the list above, for reference:
kinase-Nluc reporter destabilization hit call, inactive:
O=[N+]([O-])c1ccc(Nc2nc(N3CCOCC3)nc(N3CCOCC3)n2)cc1 (10 µM) 0
c1ccc(-c2nc(=NCCN3CCOCC3)sn2-c2ccccc2)cc1 [VP3.15 (dihydrobromide)] (10 µM) 0
